Results reported in PubChem BioAssay AID1439 (NMMLSC, 2008).
Hit rate of the full screen: of about 220,000 compounds, about 770 (0.35%) were called active. This list was built around the results that the source calls inconclusive (neither active nor inactive); the mix of calls is not that of the screen. Cut-off read from the data, not from the text of the source: active = binding response below about 49% or above about 150%; inconclusive = no clear call, values can overlap the other calls; inactive = in between.

Amino acid sequences for entries named in this document (tags omitted).
UniProt P09471, whole entry, looked up: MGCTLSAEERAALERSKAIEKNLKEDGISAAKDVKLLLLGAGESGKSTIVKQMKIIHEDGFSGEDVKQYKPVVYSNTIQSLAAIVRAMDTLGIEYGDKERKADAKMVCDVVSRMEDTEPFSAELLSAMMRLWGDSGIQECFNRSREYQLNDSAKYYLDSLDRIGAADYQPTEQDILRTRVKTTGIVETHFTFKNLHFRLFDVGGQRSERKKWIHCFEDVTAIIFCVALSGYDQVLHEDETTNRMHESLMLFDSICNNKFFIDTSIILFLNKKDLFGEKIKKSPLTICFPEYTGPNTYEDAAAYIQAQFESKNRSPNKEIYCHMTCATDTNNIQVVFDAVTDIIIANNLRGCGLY

Each compound was assayed against Guanine nucleotide-binding protein G(o) subunit alpha (Homo sapiens) (UniProt P09471) (assay: RGS7-Galphao binding modulators, primary screen, biochemical, multiplexed bead flow cytometry (AID 1439;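 note: fluorescent Galphao held in activated GDP-AlF4 state binding bead-coupled RGS7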)). Conditions: at 10 µM, actives lie on both sides.
O=S1(=O)C[C@@H]2N=C(N/N=C/c3ccccc3)S[C@@H]2C1 was tested, and the binding response (% of control) was inconclusive: 72%. With Cc1nc(Br)c(Br)c(C)c1Br the binding response (% of control) was inconclusive: 69.5%. For Cn1c(SCC(=O)Nc2ccc3[nH]c(=O)[nH]c3c2)nnc1-c1ccc(F)cc1, the binding response (% of control) was inconclusive: 114%. For Cn1nc(C(=O)OCC(=O)NC2CCS(=O)(=O)C2)c2ccccc2c1=O (stereo not drawn), the binding response (% of control) was inconclusive: 93.5%. CN(C)N=Nc1nc2c(c(=O)n(C)c(=O)n2C)n1CC1CO1 (stereo not drawn) was tested, and the binding response (% of control) was inconclusive: 178%. For COc1ccccc1-n1cn[nH]c1=S, the binding response (% of control) was inconclusive: 113%. In the case of CCOC(=O)N(C)S(=O)(=O)c1ccccc1[N+](=O)[O-], the binding response (% of control) is reported as inconclusive: 93.1%. Cc1nn(C)cc1N1C(=O)c2cccc3c(N)ccc(c23)C1=O was tested, and the binding response (% of control) was inconclusive: 88.3%. With Cc1c(Cl)cccc1NC(=S)NCC1COc2ccccc2O1 (stereo not drawn) the binding response (% of control) was inconclusive: 128%. Cc1ccc(NC(=O)C(C)N2C(=O)c3ccccc3C2=O)cc1S(=O)(=O)N1CCOCC1 (stereo not drawn) was tested, and the binding response (% of control) was inconclusive: 100%. With COc1ccc(C(=O)N2CCc3c([nH]c4ccccc34)C2C(F)(F)F)cc1 (stereo not drawn) the binding response (% of control) was inconclusive: 42.7%. With Cc1ccc(S(=O)(=O)N2CC=C(C(=O)NC3CC3)CC2)cc1 the binding response (% of control) was inconclusive: 35.9%. In the case of O=C1/C(=C\c2ccco2)SC(=S)N1C1CCS(=O)(=O)C1 (stereo not drawn), the binding response (% of control) is reported as inconclusive: -47.2%. In the case of Cc1cc(=O)oc2cc(OCC(=O)OCC(=O)Nc3c(C)n(C)n(-c4ccccc4)c3=O)ccc12, the binding response (% of control) is reported as inactive: 95.5%. For O=C(c1n[nH]c2ccccc12)N1CCN(c2ccc(F)cc2)CC1, the binding response (% of control) was inconclusive: 127%. O=C(O)/C=C/C(=O)Nc1ccc2c(c1)C(=O)c1ccccc1C2=O was tested, and the binding response (% of control) was inconclusive: 55.1%. COc1ccc(/C=C(\C#N)c2cc(OC)c(OC)cc2[N+](=O)[O-])cc1 was tested, and the binding response (% of control) was inconclusive: 94.7%. With N#CC1=C(N)Oc2cc(Nc3ccccc3)ccc2C1c1ccncc1 (stereo not drawn) the binding response (% of control) was inactive: 106%. With Cc1ccc(N/N=C(\C#N)C(=O)c2ccsc2)cc1 the binding response (% of control) was inconclusive: 107%. For O=C(CCN1C(=O)C2CCCCC2C1=O)Nc1ccc(F)c(F)c1F (stereo not drawn), the binding response (% of control) was inconclusive: 110%. FC(F)(F)c1ccccc1-n1c(-c2cnccn2)n[nH]c1=S was tested, and the binding response (% of control) was inconclusive: 102%. In the case of O=C(/C=C/c1ccc2c(c1)OCO2)N1CCN(c2n[nH]c(=O)[nH]c2=O)CC1, the binding response (% of control) is reported as inconclusive: 104%. CN(C)c1cc(-c2ccc(Cl)cc2Cl)oc(=O)c1Cl was tested, and the binding response (% of control) was inconclusive: 159%. For COc1ccccc1-n1cc(CN2CCN(CC=C(C)C)C(CCO)C2)cn1 (stereo not drawn), the binding response (% of control) was inconclusive: 108%. With O=C(O)CC1COc2ccccc2N1C(=O)c1ccccc1Cl (stereo not drawn) the binding response (% of control) was inactive: 90.9%. With O=C(CSC1=NCCN1)Nc1cccc(C(F)(F)F)c1 the binding response (% of control) was inconclusive: 101%. For CN1/C(=C/C(=O)CSc2ccccc2C(=O)O)C(C)(C)c2ccccc21, the binding response (% of control) was inconclusive: 117%. With NCC12CC3CC(CC(O)(C3)C1)C2 the binding response (% of control) was inactive: 101%. For CCn1c(SCC(=O)Nc2ccc(C)cc2)nc2nc3c(cc2c1=O)COC(C)(C)C3, the binding response (% of control) was inconclusive: 779%. With O=C(COc1nsnc1N1CCOCC1)Nc1ccc(Cl)cc1 the binding response (% of control) was inconclusive: 79.9%. For COc1ccc2c(c1)n([O-])c1c([n+]2=O)CCC1, the binding response (% of control) was inconclusive: 56%. With CCC(C)NCCOCCOc1ccc(Cl)cc1Br (stereo not drawn) the binding response (% of control) was inconclusive: 108%. In the case of CC(=O)Nc1cc2cc(NS(=O)(=O)c3ccc(C)cc3)ccc2oc1=O, the binding response (% of control) is reported as inconclusive: 110%. For CCOc1cc(CNC)ccc1OCC(=O)NC(C)(C)C, the binding response (% of control) was inconclusive: 110%. In the case of O=C(CN1C(=O)c2ccccc2S1(=O)=O)NCc1ccco1, the binding response (% of control) is reported as inactive: 100%. For O=S(=O)(c1ccc(F)cc1)N1CC=C(c2ccccc2)CC1, the binding response (% of control) was inconclusive: -52.6%. In the case of CCn1ncc(CNC(=O)C2(C)CC2(Cl)Cl)c1C (stereo not drawn), the binding response (% of control) is reported as inactive: 92%. For CC(NS(=O)(=O)c1ccc(Cl)c(Cl)c1)C(=O)OCC(=O)Nc1ccc2c(c1)OCO2 (stereo not drawn), the binding response (% of control) was inconclusive: 113%. For NC1=NC[C@@H](Cc2ccc(O)cc2)N1CC1CCCCC1, the binding response (% of control) was inconclusive: 91.4%. COc1cc(C(CCN2CCN(c3ccccc3)CC2)c2c(OC)cc(OC)c3ccc(=O)oc23)cc(OC)c1OC (stereo not drawn) was tested, and the binding response (% of control) was inconclusive: 102%. For CCNC(=O)NC(=O)CSc1nc2ccccc2n1CCOC, the binding response (% of control) was inactive: 101%. For Cc1ccc(C(=O)N(CC#N)CC#N)cc1C, the binding response (% of control) was inactive: 105%. For N#C/C(=C\c1ccc(Cl)cc1)C(=O)Nc1cccnc1, the binding response (% of control) was inconclusive: 73.8%. With COc1ccc(OCC(=O)Nc2ccncc2)cc1 the binding response (% of control) was inconclusive: 123%. For COC(=O)C1CC(O)CN1S(=O)(=O)c1cccs1 (stereo not drawn), the binding response (% of control) was inactive: 117%. With CC1=NN(C(=O)c2ccc(Br)cc2)C(O)(c2ccccc2)C1 (stereo not drawn) the binding response (% of control) was inconclusive: 99.3%. For C=C(C)CNC(=S)Nc1cccc(N)n1, the binding response (% of control) was inconclusive: 107%. In the case of Cc1cccc(NC(=O)c2nc[nH]c2C(=O)NCC(=O)OC(C)(C)C)c1, the binding response (% of control) is reported as inconclusive: 172%. With CCCCCC1CC(CC(=O)Nc2ccc([N+](=O)[O-])cc2)OC1=O (stereo not drawn) the binding response (% of control) was inconclusive: 93.9%. CN(C)S(=O)(=O)Nc1ccccn1 was tested, and the binding response (% of control) was inconclusive: 24.2%. In the case of Cc1nn(-c2ccccc2)c(N)c1Sc1cccc([N+](=O)[O-])c1, the binding response (% of control) is reported as inactive: 122%. For COc1cc(/C=N/NC(=O)C(N)=O)cc(OC)c1O, the binding response (% of control) was inconclusive: 102%. Cc1cccc(NC(=O)c2ccc([N+](=O)[O-])o2)c1 was tested, and the binding response (% of control) was inconclusive: 105%. In the case of O=C(CCCN1C(=O)c2cccc3cccc(c23)C1=O)Nc1nccs1, the binding response (% of control) is reported as inconclusive: 107%. In the case of COc1ccc(Cl)cc1S(=O)(=O)N1CCN(C)CC1, the binding response (% of control) is reported as inactive: 103%. For CCSc1nnc2ccc(-c3ccco3)nn12, the binding response (% of control) was inconclusive: 107%. In the case of O=C(CCl)N(CCCNC(=O)C(F)(F)F)c1ccc([N+](=O)[O-])cc1, the binding response (% of control) is reported as inconclusive: -457%. With CC1CCCC(C)N1C(=O)Cn1c(SCC(=O)Nc2ccc3c(c2)OCO3)nc2ccccc21 (stereo not drawn) the binding response (% of control) was inactive: 102%. With CC(=O)Nc1ccc(NC(=O)COc2cccc3c2OC(C)(C)C3)cc1 the binding response (% of control) was inactive: 111%. With COc1ccc(OCCCC(=O)Nc2nccs2)cc1 the binding response (% of control) was inconclusive: -42.9%. COc1ccc(C(=O)CNc2ccccc2C#N)cc1 was tested, and the binding response (% of control) was inconclusive: 107%. For CC(C)(C)c1ccc(OCc2ccc(C(=O)N/N=C/c3ccc(O)c(O)c3)cc2)cc1, the binding response (% of control) was inconclusive: 82.1%. With O=C(CSc1nnc2n1CCCN2)c1ccccc1 the binding response (% of control) was inconclusive: 123%. In the case of COc1ccc(/C=N/n2c(=O)[nH]c3c([nH]c4ccc(Cl)cc43)c2=O)cc1CN1CCCCC1, the binding response (% of control) is reported as inconclusive: 110%. Cn1nc(-c2ccccc2)cc1NC(=O)Nc1ccccc1F was tested, and the binding response (% of control) was inconclusive: -81.9%. O=C(O)CC(C(=O)Nc1ccc(F)cc1)C1CCCO1 (stereo not drawn) was tested, and the binding response (% of control) was inconclusive: 148%. In the case of Cn1c2ccccc2c(=O)c2c(=O)n(Cc3ccco3)c(-c3ccc(Cl)cc3Cl)nc21, the binding response (% of control) is reported as inconclusive: 170%. For O=[N+]([O-])C(=c1ccc2c(c1)N1C3=C(CCCC3)CC3CCCCC31N=2)[N+](=O)[O-] (stereo not drawn), the binding response (% of control) was inconclusive: -195%. With COc1ccccc1CNC(=O)CN(c1cccc([N+](=O)[O-])c1)S(C)(=O)=O the binding response (% of control) was inconclusive: 112%. In the case of N#CC1=C(Nc2ccccc2Cl)SC(c2ccccc2O)NC1=O (stereo not drawn), the binding response (% of control) is reported as inconclusive: 141%. In the case of CS(=O)(=O)NN1C(=O)c2ccccc2NC1c1cccs1 (stereo not drawn), the binding response (% of control) is reported as inactive: 99.7%. With Cc1ccc(N(CC(=O)NC(C)(C)C)C(=O)CNC(=O)c2cccs2)c(C)c1 the binding response (% of control) was inactive: 107%. In the case of CCCCN(CCCC)CCCNC(=O)C1CC(c2ccc(C(F)(F)F)cc2)=NO1 (stereo not drawn), the binding response (% of control) is reported as inconclusive: 108%. For CNC(=S)NNC(=O)c1cccc(N(C)C)c1, the binding response (% of control) was inactive: 105%. COc1ccc(C2CC(c3ccc(Br)cc3)Nc3nc(N)nn32)cc1 (stereo not drawn) was tested, and the binding response (% of control) was inactive: 99.5%. In the case of C=CCO/N=C(/C)c1ccc(Oc2cnccn2)cc1, the binding response (% of control) is reported as inconclusive: 108%. For C=CCn1c(C(CC)CC)nc2ccccc21, the binding response (% of control) was inconclusive: 84.9%. With CCN(CC)S(=O)(=O)c1cccc(NC(=O)COc2ncnc3sccc23)c1 the binding response (% of control) was inconclusive: 121%. CC(/C=N/n1c(-c2cccnc2)n[nH]c1=S)=C\c1ccco1 was tested, and the binding response (% of control) was inconclusive: 225%. CSc1nc(C)cc(Oc2ccc(=O)[nH]n2)n1 was tested, and the binding response (% of control) was inconclusive: 105%. Cc1cc([N+](=O)[O-])cc2c1NC(=O)C2(O)N1CCOCC1 (stereo not drawn) was tested, and the binding response (% of control) was inactive: 79.7%. In the case of NS(=O)(=O)c1ccc(CNC(=O)c2cc(-c3cccs3)nc3ccccc23)cc1, the binding response (% of control) is reported as inconclusive: 93%. In the case of O=C(Cc1ccc(Br)cc1)N/N=C/c1ccc(-c2cccc(C(=O)O)c2)o1, the binding response (% of control) is reported as inconclusive: 95.1%. In the case of Cc1cc(C)n2ncc(S(=O)(=O)c3ccccc3)c2n1, the binding response (% of control) is reported as inconclusive: 78.1%. In the case of Cc1ccc(OC(=S)Nc2ccc(O)cc2)cc1, the binding response (% of control) is reported as inactive: 105%. With CCCCCCn1cc(C(=O)OCC)c(=O)c2cc(F)c(F)cc21 the binding response (% of control) was inconclusive: 103%. CCCNC(=O)NNC(=O)c1ccc(F)cc1 was tested, and the binding response (% of control) was inactive: 95.5%. For O=S(=O)(c1ccc(Br)s1)N1CCN(c2ccnc3cc(Cl)ccc23)CC1, the binding response (% of control) was inconclusive: 102%. With O=C(COc1ccc(/C=C\[N+](=O)[O-])cc1)N1CCOCC1 the binding response (% of control) was inconclusive: 76.7%. In the case of Cc1nnc(SCC(=O)NC(C)(C)C)n1NCc1c(F)cccc1Cl, the binding response (% of control) is reported as inactive: 93.6%. For CC(C(=O)Nc1ccc2c(c1)OCO2)N1CCN(C)CC1 (stereo not drawn), the binding response (% of control) was inconclusive: 80.5%. In the case of O=C(O)c1ccc(-n2c(-c3cc(C4CC4)[nH]n3)n[nH]c2=S)cc1, the binding response (% of control) is reported as inconclusive: 85.6%. Cc1ccc(S(=O)(=O)N(C)C)cc1-n1c(SCC(=O)N(C)C)nc2ccccc2c1=O was tested, and the binding response (% of control) was inconclusive: 107%.
